# Data taken from article PMC6783653, “TIP30 counteracts cardiac hypertrophy and failure by inhibiting translational elongation” (EMBO Molecular Medicine, 2019).
# Results are given in words; binding and its absence hold for the method and conditions named. Binding seen in cells or lysates may run through a third protein. Binding can be weak; no strength is given. Where a sequence is shown, tags or fusion partners need not be part of it.
# Biological target: T1, GST-TIP30 (full-length TIP30, GST fusion, bacterial) (rat) (UniProt B0BNF8)
# T1 sequence: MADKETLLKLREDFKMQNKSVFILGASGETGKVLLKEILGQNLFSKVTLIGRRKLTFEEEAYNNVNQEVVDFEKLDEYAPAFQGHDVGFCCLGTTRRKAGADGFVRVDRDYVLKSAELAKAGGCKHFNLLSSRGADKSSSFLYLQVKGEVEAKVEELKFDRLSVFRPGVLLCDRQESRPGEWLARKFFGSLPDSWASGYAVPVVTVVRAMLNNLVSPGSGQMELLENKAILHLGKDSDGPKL
# Experiment: pull-down; GST-TIP30 on glutathione agarose beads, His-tagged eEF1A1 mutants, Western blot
row,binding,Substance
1,binds,His-tagged eEF1A1 mutant lacking domain one (rat) (domain or fragment)
2,binds,His-tagged eEF1A1 mutant lacking domain three (rat) (domain or fragment)
3,no binding,His-tagged eEF1A1 mutant lacking the middle domain (rat) (domain or fragment)
